Publication PMC10244698, “Polypyrimidine tract binding protein 1 (PTBP1) contains a novel regulatory sequence, the rBH3, that binds the prosurvival protein MCL1” (The Journal of Biological Chemistry, 2023)
Results are given in words; binding and its absence hold for the method and conditions named. For some assays here: Binding seen in cells or lysates may run through a third protein. Some binding calls cover weakened binding; strength is not graded here.

Protein sequences, listed by entry. Tags and fused reporters are not part of them.
UniProt P26599: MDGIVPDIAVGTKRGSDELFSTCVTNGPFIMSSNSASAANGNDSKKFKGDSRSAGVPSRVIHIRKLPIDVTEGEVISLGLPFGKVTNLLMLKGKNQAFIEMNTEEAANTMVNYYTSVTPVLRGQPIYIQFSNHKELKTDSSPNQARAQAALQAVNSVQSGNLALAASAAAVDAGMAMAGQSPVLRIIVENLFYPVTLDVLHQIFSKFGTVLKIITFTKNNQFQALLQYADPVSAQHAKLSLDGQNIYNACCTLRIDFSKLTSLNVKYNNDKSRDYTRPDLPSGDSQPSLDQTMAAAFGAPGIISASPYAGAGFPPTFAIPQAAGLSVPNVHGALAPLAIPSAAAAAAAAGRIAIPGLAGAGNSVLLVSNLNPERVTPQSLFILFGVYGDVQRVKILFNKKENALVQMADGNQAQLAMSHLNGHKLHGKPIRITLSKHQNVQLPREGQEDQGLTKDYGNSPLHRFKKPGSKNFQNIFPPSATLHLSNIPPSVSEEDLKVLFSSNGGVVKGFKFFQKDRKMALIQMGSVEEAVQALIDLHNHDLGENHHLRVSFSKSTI

Key:
[1] = biological target: T1, FITC-labeled peptide containing the RRM1 rBH3 sequence (human); test: condition: only with pharmacologic inhibition of the MCL1-binding groove; fluorescence polarisation; direct FPA of F-RRM1_(rBH3) peptide and MCL1 with pharmacologic inhibition of the MCL1-binding groove (Fig. S1); both purified
T1 sequence (peptide, FITC-Ahx on the N-terminus): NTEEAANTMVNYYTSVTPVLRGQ

[2] = biological target: Polypyrimidine tract binding protein 1 (PTBP1), endogenous (human (endogenous in MDA-MB-468)) (UniProt P26599); test: co-IP; 25 ug recombinant MCL1 added to MDA-MB-468 lysate (1 mg protein); endogenous PTBP1 captured with anti-PTBP1 antibody and magnetic beads; Western blot for MCL1; only the binder purified

B1: myeloid cell leukemia-1 (MCL1), residues 163-326 (domain or fragment, human, UniProt Q07820 163-326, looked up)
chain: TPPPAEEEEDELYRQSLEIISRYLREQATGAKDTKPMGRSGATSRKALETLRRVGDGVQRNHETAFQGMLRKLDIKNEDDVKSLSRVMIHVFSDGVTNWGRIVTLISFGAFVAKHLKTINQESCIEPLAESITDVLVRTKRDWLVKQRGWDGFVEFFHVEDLEG
notes: human MCL1, UniProt Q07820, residues 163-326, cloned into pET28a; also called recombinant MCL1; source: E. coli BL21 (DE3), purified (nickel chromatography, gel filtration)
binding [1]: no binding | binding [2]: binds
